Assay results from US11427590B2, “Small molecule inhibitors of neutral sphingomyelinase 2 (nSMase2) for the treatment of neurodegenerative diseases” (The Johns Hopkins University, priority 2017, dated 2022).
At least one compound was matched to its structure with a doubt left.

Columns and labels:
[1] = system: rat astrocytes; experiment: Inhibition of exosome release from primary astrocytes in vitro; type: cell-based; conditions: 0.3-10 μM, 2 h after treatment, vs DMSO (0.02%)
Protocol: The effect of nSMase2 inhibitors on the manufacturing and release of ceramide rich exosomes from primary astrocytes was investigated as previously described. Dickens, et al. Briefly, rat astrocytes are seeded onto 6-well plates at a density of 20,000 cells/well. Twenty-four hours after seeding, astrocytes are washed with PBS and the medium changed to media without FBS. Absence of FBS mimics a trophic factor withdrawal stimulus causing the release of exosomes via a nSMase2-dependent pathway. Astrocytes are then treated with nSMase2 inhibitors at concentrations in the range 0.03-30 μM. DMSO (0.02%) is used as control. […] Dickens, et al. The number of EVs is quantified using ZetaView Nanoparticle Tracker (Particle Metrix GmBH, Meerbusch, Germany) and the corresponding ZetaVeiw software (8.03.04.01). Nanosphere size standard 100 nm (Thermo Scientific) is used to calibrate the instrument prior to sample readings. For each sample 1 mL of the supernatant is injected into the sample-carrier cell and the particle count measured at 5 positions, with 2 cycles of reading per position. […] Mean concentration of EVs/mL (±SEM) is calculated from 6 replicates. […]
Referring now to FIG. 4A and FIG. 4B, the ability of compound 38 and several of its analogs to inhibit exosome release in vitro was evaluated as previously described. […]

[2] = system: GFAP-GFP mice; experiment: Inhibition of exosome release in vivo after striatal IL-1β injection; conditions: 10 mg/kg IP 30 min before IL-1β, measured 2 h after IL-1β
Protocol: Striatal injections of IL-1β and exosome measurements are performed as previously described by our group in adult (2-3 month) male GFAP-GFP mice (Jackson Laboratories). Dickens, et al.; McCluskey, et al. Mice are anesthetized with 3% Isoflourane (Baxter) in oxygen (Airgas), and placed in a stereotaxic frame (Stoelting Co.). A small burr hole is drilled in the skull over the left striatum using a dental drill (Fine Scientific Tools). IL1β (0.1 ng/3 μl) is injected (total volume of 3 μl) at the rate 0.5 μl/min via a pulled glass capillary tip diameter <50 μm using the stereotaxic coordinates: A/P+1; M/L-2; -3 D/V. Following infusion, the capillary is held in place for 5 min to allow for solution to diffuse into the tissue. Animals are sacrificed at 2, 12 or 24 h by an overdose of anesthetic, and transcardially perfused with ice-cold saline containing heparin (20 μl per 100 ml, Sigma). Blood is rapidly isolated and flash frozen. […]
GFAP-GFP mice that release green EVs from astrocytes into the systemic circulation were used so that exosome release from astrocytes in plasma can be followed. […] The concentration of immunoprecipitated GFP+ EVs is quantified using ZetaView nanoparticle tracking analysis (Particle Metrix) as described in the cell-based exosome release. […]

COc1ccc(-n2nnc3c(N4CC[C@@H](NC(C)=O)C4)nc(C)nc32)cc1OC [compound 65, N-{(3R)-1-[3-(3,4-dimethoxyphenyl)-3H-[1,2,3]triazolo[4,5-d]pyrimidin-7-yl]pyrrolidin-3-yl}acetamide]
exosome release from astrocytes [1]: had no effect on exosome release
exosomes in plasma after striatal IL-1β injection [2]: had no effect
